Results reported in PMC7862700.
The entries are a selection whose mix differs from that of the whole data set. At the low end of the ranking, values are background and their order means little.

What follows are sequences tested against T1, ELF3 (UniProt P78545) (assay: DAPPL (digital affinity profiling via proximity ligation, sequencing)). Conditions: 10 mM Tris-HCl pH 7.5, 50 mM NaCl, 1 mM DTT, 4% glycerol, room temperature, 30 min; GST-TFs on glutathione beads, 16-mer random dsDNA library, 0.1% …; high values mean tight binding; double strand, one strand shown; scale: fold enrichment (6-mer frequency, TF over GST control).
T1 sequence: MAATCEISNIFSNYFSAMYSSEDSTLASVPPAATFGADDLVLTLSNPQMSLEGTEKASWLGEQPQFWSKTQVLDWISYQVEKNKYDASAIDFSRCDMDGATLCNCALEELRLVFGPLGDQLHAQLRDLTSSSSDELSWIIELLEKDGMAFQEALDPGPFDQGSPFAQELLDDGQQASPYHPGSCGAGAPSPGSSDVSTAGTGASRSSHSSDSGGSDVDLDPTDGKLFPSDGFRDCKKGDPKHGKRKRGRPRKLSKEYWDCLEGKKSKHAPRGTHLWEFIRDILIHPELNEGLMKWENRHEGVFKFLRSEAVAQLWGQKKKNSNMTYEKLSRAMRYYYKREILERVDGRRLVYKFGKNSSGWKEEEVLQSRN

Sequence | binding signal
ATACAG | 1.12
CTGAAT | 1.15
TATCAG | 1.09
ATGACA | 1.33
TTCAAG | 1.23
ACTGGC | 1.1
TACATC | 1.48
TTAGCG | 0.937
AAGTAC | 1.68
TTAGAA | 0.922
TTGCCG | 1.09
TATTGT | 1.23
TCTGTC | 1.19
TCCATC | 1.11
TCCCTT | 1.5
ATTCCC | 1.35
GTATTC | 1.31
CAAATA | 1.4
CCCGCC | 1.45
TCTAGC | 1.32

Sequence | binding signal
CCGGTA | 1.6
ACCTAA | 1.2
CTCAAA | 1.32
GTACAT | 1.28
CTGGCC | 1
ATCCCC | 1.53
ATATGT | 1.14
CTGCCA | 1.22
TTACGA | 0.998
TTAACT | 1.21
TTGTAC | 1.39
TCTGCC | 1.28
TGTGAC | 1.16
TGCGCG | 0.987
CAACCA | 0.966
TAGGCT | 1.1
CTCGTG | 0.988
CACCAT | 1.1
AATGGG | 1.13

Exported field by field: entries from further up.
CCGGTA
  binding signal = 1.6
ACCTAA
  binding signal = 1.2
CTCAAA
  binding signal = 1.32
